No constants are given. Whether binding was seen depends on the method and setting. In cells and extracts the contact can be indirect. A yes stands for co-enrichment or nearness to the bait. Other partners may have been found.
T1: alanine aminotransferase 1 (human (endogenous in HepG2)) (UniProt P24298)
T1 sequence: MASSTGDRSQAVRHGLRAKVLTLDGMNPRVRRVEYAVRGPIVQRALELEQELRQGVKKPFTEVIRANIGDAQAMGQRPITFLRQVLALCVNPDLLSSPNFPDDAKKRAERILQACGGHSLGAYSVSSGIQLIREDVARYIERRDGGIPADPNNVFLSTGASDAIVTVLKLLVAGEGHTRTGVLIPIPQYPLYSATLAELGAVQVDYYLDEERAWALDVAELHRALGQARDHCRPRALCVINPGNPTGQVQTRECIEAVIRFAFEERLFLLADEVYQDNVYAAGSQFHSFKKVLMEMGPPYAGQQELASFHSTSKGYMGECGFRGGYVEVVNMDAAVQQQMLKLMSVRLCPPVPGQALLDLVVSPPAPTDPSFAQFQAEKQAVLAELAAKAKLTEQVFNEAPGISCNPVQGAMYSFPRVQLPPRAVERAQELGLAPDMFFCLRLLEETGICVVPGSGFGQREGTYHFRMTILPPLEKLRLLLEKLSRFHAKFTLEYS

Protein sequences, listed by entry. Tags and fused reporters are not part of them. Residues count along the entry.
UniProt Q13751, residues 18-1172: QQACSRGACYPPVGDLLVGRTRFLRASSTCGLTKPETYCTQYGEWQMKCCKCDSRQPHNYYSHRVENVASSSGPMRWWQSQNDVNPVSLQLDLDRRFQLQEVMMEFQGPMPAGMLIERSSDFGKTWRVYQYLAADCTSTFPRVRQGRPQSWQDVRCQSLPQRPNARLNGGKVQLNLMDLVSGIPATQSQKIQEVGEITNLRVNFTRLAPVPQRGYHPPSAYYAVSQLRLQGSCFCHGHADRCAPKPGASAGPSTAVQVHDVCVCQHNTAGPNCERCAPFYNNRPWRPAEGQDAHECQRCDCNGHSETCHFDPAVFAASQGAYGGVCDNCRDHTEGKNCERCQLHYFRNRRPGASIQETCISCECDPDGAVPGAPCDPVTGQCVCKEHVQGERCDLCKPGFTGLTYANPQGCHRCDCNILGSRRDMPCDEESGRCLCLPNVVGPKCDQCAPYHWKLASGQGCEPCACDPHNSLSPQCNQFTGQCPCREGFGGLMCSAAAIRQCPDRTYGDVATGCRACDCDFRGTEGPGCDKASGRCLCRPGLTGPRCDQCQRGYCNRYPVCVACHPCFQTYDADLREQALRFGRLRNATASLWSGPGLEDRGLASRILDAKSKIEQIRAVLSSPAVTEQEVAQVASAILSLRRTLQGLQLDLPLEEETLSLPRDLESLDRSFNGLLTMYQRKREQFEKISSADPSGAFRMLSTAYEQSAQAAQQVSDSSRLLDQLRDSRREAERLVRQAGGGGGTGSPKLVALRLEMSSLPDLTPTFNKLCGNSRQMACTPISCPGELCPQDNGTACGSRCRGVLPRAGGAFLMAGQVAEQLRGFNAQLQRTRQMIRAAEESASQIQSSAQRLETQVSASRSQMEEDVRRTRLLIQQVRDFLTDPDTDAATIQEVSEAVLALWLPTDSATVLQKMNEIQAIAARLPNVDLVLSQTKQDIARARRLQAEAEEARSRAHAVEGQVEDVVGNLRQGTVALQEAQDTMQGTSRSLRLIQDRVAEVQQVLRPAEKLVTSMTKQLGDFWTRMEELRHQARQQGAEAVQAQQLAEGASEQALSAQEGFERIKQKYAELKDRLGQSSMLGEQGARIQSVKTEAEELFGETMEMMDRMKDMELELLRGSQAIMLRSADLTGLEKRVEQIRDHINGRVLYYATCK
UniProt P04792: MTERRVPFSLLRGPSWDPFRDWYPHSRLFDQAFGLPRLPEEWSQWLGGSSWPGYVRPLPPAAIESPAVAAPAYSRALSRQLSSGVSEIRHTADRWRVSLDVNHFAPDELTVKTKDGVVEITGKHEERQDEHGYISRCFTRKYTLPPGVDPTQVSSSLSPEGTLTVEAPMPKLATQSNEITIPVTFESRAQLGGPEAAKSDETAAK
UniProt P46013: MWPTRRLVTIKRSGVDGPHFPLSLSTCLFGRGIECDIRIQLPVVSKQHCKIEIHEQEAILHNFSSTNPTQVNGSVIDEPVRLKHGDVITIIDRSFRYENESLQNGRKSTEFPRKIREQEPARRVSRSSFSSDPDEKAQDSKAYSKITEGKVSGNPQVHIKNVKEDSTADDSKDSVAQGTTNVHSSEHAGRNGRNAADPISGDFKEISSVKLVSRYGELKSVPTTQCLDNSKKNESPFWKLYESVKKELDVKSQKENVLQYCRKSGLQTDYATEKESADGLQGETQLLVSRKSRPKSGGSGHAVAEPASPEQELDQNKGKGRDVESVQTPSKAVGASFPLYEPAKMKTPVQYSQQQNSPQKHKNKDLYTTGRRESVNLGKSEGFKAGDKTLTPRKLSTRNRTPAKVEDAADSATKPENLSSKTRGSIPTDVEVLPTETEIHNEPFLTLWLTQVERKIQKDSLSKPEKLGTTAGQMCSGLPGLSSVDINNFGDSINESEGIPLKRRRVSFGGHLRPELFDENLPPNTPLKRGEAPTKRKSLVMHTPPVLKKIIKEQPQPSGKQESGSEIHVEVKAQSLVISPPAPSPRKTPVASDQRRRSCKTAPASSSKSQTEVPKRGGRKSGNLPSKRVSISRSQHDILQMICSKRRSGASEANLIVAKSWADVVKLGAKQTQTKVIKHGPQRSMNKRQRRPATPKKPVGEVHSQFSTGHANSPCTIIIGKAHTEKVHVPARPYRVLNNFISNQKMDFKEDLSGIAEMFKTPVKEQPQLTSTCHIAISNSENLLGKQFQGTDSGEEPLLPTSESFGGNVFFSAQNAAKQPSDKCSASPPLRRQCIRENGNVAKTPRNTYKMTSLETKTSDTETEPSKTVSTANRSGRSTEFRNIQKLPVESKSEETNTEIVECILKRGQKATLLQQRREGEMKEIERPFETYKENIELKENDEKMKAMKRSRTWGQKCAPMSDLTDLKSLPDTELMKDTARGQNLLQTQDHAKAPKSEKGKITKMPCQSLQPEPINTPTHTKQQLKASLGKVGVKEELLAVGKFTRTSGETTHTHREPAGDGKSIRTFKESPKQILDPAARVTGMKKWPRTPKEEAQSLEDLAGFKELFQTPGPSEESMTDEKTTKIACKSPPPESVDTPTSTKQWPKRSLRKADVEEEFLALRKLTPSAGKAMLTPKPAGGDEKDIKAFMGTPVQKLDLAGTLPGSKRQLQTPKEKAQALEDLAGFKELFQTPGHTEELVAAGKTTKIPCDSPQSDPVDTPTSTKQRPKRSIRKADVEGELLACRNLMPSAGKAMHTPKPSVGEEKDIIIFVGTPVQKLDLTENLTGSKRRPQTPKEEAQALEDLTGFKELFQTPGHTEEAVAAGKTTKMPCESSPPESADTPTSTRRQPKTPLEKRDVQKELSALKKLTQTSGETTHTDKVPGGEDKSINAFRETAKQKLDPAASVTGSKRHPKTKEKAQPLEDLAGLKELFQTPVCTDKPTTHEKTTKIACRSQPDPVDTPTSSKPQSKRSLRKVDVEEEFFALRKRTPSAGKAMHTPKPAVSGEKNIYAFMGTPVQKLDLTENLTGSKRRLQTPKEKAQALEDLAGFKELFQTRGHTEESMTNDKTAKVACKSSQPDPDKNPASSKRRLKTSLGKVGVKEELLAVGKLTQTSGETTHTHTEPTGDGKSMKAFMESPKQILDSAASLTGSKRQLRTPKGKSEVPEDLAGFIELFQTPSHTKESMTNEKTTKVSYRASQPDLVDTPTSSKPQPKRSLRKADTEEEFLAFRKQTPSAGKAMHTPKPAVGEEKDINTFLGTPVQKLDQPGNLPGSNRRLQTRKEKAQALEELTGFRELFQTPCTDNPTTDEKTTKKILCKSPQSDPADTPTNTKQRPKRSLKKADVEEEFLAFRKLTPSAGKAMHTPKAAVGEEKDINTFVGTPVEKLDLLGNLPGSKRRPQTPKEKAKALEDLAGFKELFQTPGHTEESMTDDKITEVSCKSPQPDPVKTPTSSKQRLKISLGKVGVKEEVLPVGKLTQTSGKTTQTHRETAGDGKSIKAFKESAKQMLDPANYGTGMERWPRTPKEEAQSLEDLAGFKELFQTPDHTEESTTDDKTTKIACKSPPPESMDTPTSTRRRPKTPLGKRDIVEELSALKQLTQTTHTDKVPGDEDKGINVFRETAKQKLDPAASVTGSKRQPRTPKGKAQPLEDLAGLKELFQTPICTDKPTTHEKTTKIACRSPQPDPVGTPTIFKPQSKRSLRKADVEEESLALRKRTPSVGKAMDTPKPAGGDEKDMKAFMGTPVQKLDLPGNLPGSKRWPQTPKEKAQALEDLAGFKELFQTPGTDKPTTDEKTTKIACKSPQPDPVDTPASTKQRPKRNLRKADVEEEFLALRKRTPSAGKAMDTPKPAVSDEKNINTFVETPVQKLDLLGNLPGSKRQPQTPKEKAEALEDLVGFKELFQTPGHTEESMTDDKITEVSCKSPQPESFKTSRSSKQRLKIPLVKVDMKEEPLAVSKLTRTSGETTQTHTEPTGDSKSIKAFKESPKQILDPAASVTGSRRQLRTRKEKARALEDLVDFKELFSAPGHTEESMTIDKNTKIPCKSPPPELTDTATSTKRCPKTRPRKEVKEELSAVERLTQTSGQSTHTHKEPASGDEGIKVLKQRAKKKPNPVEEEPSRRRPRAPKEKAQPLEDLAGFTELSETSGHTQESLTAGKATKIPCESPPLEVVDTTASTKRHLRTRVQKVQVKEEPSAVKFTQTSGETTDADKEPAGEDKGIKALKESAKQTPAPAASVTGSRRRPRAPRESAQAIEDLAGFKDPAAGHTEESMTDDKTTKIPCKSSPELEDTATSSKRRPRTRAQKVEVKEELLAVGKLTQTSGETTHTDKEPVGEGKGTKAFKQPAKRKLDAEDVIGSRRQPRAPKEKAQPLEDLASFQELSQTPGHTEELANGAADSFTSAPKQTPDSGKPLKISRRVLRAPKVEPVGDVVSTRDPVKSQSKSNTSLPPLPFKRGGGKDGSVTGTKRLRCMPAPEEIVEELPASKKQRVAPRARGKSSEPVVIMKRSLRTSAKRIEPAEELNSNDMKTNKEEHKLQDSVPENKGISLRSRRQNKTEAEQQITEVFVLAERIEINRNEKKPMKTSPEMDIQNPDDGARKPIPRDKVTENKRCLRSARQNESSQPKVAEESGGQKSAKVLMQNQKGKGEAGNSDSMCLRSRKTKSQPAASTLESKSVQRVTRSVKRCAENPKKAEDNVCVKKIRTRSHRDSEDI
UniProt P07355: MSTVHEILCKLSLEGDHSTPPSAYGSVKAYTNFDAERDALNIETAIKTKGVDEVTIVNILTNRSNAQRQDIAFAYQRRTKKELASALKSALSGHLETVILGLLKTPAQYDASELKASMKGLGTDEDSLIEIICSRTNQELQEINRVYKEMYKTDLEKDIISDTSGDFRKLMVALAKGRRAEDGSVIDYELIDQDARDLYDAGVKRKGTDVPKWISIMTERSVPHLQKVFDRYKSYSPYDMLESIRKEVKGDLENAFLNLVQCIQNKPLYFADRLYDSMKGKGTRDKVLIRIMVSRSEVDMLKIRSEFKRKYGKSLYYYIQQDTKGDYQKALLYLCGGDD


Each molecule was assayed against T1, alanine aminotransferase 1 (human (endogenous in HepG2)) (assay: affinity purification with mass spectrometry; co-IP from lysates of HepG2 cells transfected with ALT1 siRNA or negative control siRNA, eluted proteins iTRAQ-labelled (113-115 control, 116-118 ALT1 siRNA), TripleTOF 5600+ LC/MS; differentially expressed proteins taken as ALT1-interacting).

Row | binding | Molecule
1 | binds | laminin subunit beta-3 (from UniProt Q13751 18-1172)
2 | binds | heat shock protein beta-1 (from UniProt P04792 1-205)
3 | binds | protein disulfide-isomerase A6 (protein, UniProt Q15084 20-440) LYSSSDDVIELTPSNFNREVIQSDSLWLVEFYAPWCGHCQRLTPEWKKAATALKDVVKVGAVDADKHHSLGGQYGVQGFPTIKIFGSNKNRPEDYQGGRTGEAIVDAALSALRQLVKDRLGGRSGGYSSGKQGRSDSSSKKDVIELTDDSFDKNVLDSEDVWMVEFYAPWCGHCKNLEPEWAAAASEVKEQTKGKVKLAAVDATVNQVLASRYGIRGFPTIKIFQKGESPVDYDGGRTRSDIVSRALDLFSDNAPPPELLEIINEDIAKRTCEEHQLCVVAVLPHILDTGAAGRNSYLEVLLKLADKYKKKMWGWLWTEAGAQSELETALGIGGFGYPAMAAINARKMKFALLKGSFSEQGINEFLRELSFGRGSTAPVGGGAFPTIVEREPWDGRDGELPVEDDIDLSDVELDDLGKDEL
4 | binds | apoptosis-stimulating protein 2 of p53 (protein, UniProt Q13625 1-1128) MMPMFLTVYLSNNEQHFTEVPVTPETICRDVVDLCKEPGESDCHLAEVWCGSERPVADNERMFDVLQRFGSQRNEVRFFLRHERPPGRDIVSGPRSQDPSLKRNGVKVPGEYRRKENGVNSPRMDLTLAELQEMASRQQQQIEAQQQLLATKEQRLKFLKQQDQRQQQQVAEQEKLKRLKEIAENQEAKLKKVRALKGHVEQKRLSNGKLVEEIEQMNNLFQQKQRELVLAVSKVEELTRQLEMLKNGRIDSHHDNQSAVAELDRLYKELQLRNKLNQEQNAKLQQQRECLNKRNSEVAVMDKRVNELRDRLWKKKAALQQKENLPVSSDGNLPQQAASAPSRVAAVGPYIQSSTMPRMPSRPELLVKPALPDGSLVIQASEGPMKIQTLPNMRSGAASQTKGSKIHPVGPDWSPSNADLFPSQGSASVPQSTGNALDQVDDGEVPLREKEKKVRPFSMFDAVDQSNAPPSFGTLRKNQSSEDILRDAQVANKNVAKVPPPVPTKPKQINLPYFGQTNQPPSDIKPDGSSQQLSTVVPSMGTKPKPAGQQPRVLLSPSIPSVGQDQTLSPGSKQESPPAAAVRPFTPQPSKDTLLPPFRKPQTVAASSIYSMYTQQQAPGKNFQQAVQSALTKTHTRGPHFSSVYGKPVIAAAQNQQQHPENIYSNSQGKPGSPEPETEPVSSVQENHENERIPRPLSPTKLLPFLSNPYRNQSDADLEALRKKLSNAPRPLKKRSSITEPEGPNGPNIQKLLYQRTTIAAMETISVPSYPSKSASVTASSESPVEIQNPYLHVEPEKEVVSLVPESLSPEDVGNASTENSDMPAPSPGLDYEPEGVPDNSPNLQNNPEEPNPEAPHVLDVYLEEYPPYPPPPYPSGEPEGPGEDSVSMRPPEITGQVSLPPGKRTNLRKTGSERIAHGMRVKFNPLALLLDSSLEGEFDLVQRIIYEVDDPSLPNDEGITALHNAVCAGHTEIVKFLVQFGVNVNAADSDGWTPLHCAASCNNVQVCKFLVESGAAVFAMTYSDMQTAADKCEEMEEGYTQCSQFLYGVQEKMGIMNKGVIYALWDYEPQNDDELPMKEGDCMTIIHREDEDEIEWWWARLNDKEGYVPRNLLGLYPRIKPRQRSLA

More lines, now with the values behind:

Row | Molecule | binding
5 | KI67 (from UniProt P46013 1-3256) | binds
6 | annexin A2 (from UniProt P07355 1-339) | binds
7 | epithelial cell adhesion molecule (protein, UniProt P16422 24-314) QEECVCENYKLAVNCFVNNNRQCQCTSVGAQNTVICSKLAAKCLVMKAEMNGSKLGRRAKPEGALQNNDGLYDPDCDESGLFKAKQCNGTSMCWCVNTAGVRRTDKDTEITCSERVRTYWIIIELKHKAREKPYDSKSLRTALQKEITTRYQLDPKFITSILYENNVITIDLVQNSSQKTQNDVDIADVAYYFEKDVKGESLFHSKKMDLTVNGEQLDLDPGQTLIYYVDEKAPEFSMQGLKAGVIAVIVVVVIAVVAGIVVLVISRKKRMAKYEKAEIKEMGEMHRELNA | binds
